Patent publication US20230057430A1
Results are given in words; binding and its absence hold for the method and conditions named. In cells and extracts the contact can be indirect. Some entries that bind do so weakly or less than the wild type.

Chains of the proteins cited; added tags and fusions are not shown.
UniProt Q9H7D7: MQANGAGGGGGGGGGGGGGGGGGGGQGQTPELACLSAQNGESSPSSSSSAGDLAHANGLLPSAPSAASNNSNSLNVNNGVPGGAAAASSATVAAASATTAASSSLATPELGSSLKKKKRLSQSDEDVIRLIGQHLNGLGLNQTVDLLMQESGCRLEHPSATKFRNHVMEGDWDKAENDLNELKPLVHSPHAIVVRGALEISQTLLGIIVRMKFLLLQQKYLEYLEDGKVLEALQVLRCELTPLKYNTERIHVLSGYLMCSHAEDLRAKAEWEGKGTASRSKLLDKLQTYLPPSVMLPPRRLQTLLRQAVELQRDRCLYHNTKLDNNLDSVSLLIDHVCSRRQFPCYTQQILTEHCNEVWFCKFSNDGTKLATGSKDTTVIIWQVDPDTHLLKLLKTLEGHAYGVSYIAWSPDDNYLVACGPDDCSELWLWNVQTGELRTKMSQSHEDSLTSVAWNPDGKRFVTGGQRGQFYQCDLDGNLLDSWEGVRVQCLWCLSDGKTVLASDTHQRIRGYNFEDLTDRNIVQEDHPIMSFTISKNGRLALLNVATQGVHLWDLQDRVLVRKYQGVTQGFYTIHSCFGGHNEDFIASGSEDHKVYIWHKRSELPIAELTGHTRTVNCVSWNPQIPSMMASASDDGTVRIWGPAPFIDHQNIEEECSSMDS

How the values were obtained:
[1] = biological target: WDR26 (endogenous) (human) (UniProt Q9H7D7); experiment: co-immunoprecipitation of the endogenous proteins from MCF10A and CA1D cells, western blot
[2] = biological target: WDR26 (endogenous) (human) (UniProt Q9H7D7); experiment: co-immunoprecipitation, western blot (FIG. 11b)

binding [1]: binds | binding [2]: binds
B1: NOLC1 (also known as Nopp140) (protein, human, UniProt Q14978 1-699, looked up)
chain: MADAGIRRVVPSDLYPLVLGFLRDNQLSEVANKFAKATGATQQDANASSLLDIYSFWLKSAKVPERKLQANGPVAKKAKKKASSSDSEDSSEEEEEVQGPPAKKAAVPAKRVGLPPGKAAAKASESSSSEESSDDDDEEDQKKQPVQKGVKPQAKAAKAPPKKAKSSDSDSDSSSEDEPPKNQKPKITPVTVKAQTKAPPKPARAAPKIANGKAASSSSSSSSSSSSDDSEEEKAAATPKKTVPKKQVVAKAPVKAATTPTRKSSSSEDSSSDEEEEQKKPMKNKPGPYSSVPPPSAPPPKKSLGTQPPKKAVEKQQPVESSEDSSDESDSSSEEEKKPPTKAVVSKATTKPPPAKKAAESSSDSSDSDSSEDDEAPSKPAGTTKNSSNKPAVTTKSPAVKPAAAPKQPVGGGQKLLTRKADSSSSEEESSSSEEEKTKKMVATTKPKATAKAALSLPAKQAPQGSRDSSSDSDSSSSEEEEEKTSKSAVKKKPQKVAGGAAPSKPASAKKGKAESSNSSSSDDSSEEEEEKLKGKGSPRPQAPKANGTSALTAQNGKAAKNSEEEEEEKKKAAVVVSKSGSLKKRKQNEAAKEAETPQAKKIKLQTPNTFPKRKKGEKRASSPFRRVREEEIEVDSRVADNSFDAKRGAAGDWGERANQVLKFTKGKSFRHEKTKKKRGSYRGGSISVQVNSIKFDSE
